Laboratory results reported in PubChem BioAssay AID252 (DTP/NCI, 2004).
The list is a part of this screen's results and no random one: it gathers tests that were run many times, whatever their T/C, doses with no T/C, and many T/C values between a quarter and a half above the control. Other doses and runs of a compound stand elsewhere. T/C gives the treated animals as a percentage of the vehicle group. Some entries give survivors of the animals treated and no T/C: the source holds a T/C of zero for them, seemingly a mark for toxic or unscored doses. Some survivor counts are full or nearly so, which does not show that the dose was tolerated: the source hardly ever lists a survival T/C far under the control, and the zero likely stands for such cases as well. Survivors were counted at the toxicity check, usually on the fifth day, unless a day is given; later deaths do not show. Schedules are NCI's codes, taken here to give the interval after Q, in days (D) or hours (H), and the number of doses after X. Some schedule codes hold Z or #, which are not explained here. For survival time, this PubChem deposit counts one and a half times the control or more as active, and values a quarter to a half above the control carry no call in these data; other NCI protocols may use other cut-offs. Some doses were run more than once; the values are given in rising order. Some T/C values are followed by the survivors on the day toxicity was checked, most often the fifth; where none is given, no animal had died by that day.

System: BDF1 mice, intracerebral L1210 leukemia, survival T/C
Assay: NCI In Vivo Anticancer Drug Screen. Data for tumor model L1210 Leukemia (intracerebral) in B6D2F1 (BDF1) mice
Conditions: higher T/C = longer survival
How it was run: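 Antitumour effect is judged in mice with transplanted tumour by comparing survival of treated (T) against vehicle-dosed (C) groups as T/C.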

[1] = T/C endpoint: mean survival time, dose: 16.0 mg/kg/injection, schedule: Q01DX001 (ip), vehicle: other
[2] = T/C endpoint: mean survival time, dose: 600.0 mg/kg/injection, schedule: Q01DX001 (ip), vehicle: carboxymethylcellulose (CMC)

Compound: Nc1nncs1
- T/C (T/C endpoint: mean survival time, dose: 40.0 mg/kg/injection, schedule: Q01DX009 (ip), vehicle: saline): 131 % of control
- T/C (T/C endpoint: mean survival time, dose: 60.0 mg/kg/injection, schedule: Q01DX009 (ip), vehicle: saline): 139 % of control
- T/C (T/C endpoint: mean survival time, dose: 90.0 mg/kg/injection, schedule: Q01DX009 (ip), vehicle: saline): 132 % of control
- T/C (T/C endpoint: median survival time, dose: 128.0 mg/kg/injection, schedule: Q01DX005 (ip), vehicle: saline with Tween-80): 133 % of control
- T/C (T/C endpoint: median survival time, dose: 256.0 mg/kg/injection, schedule: Q01DX005 (ip), vehicle: saline with Tween-80): 138 % of control

Compound: c1nc(SSc2ncnc3nc[nH]c23)c2[nH]cnc2n1
- T/C (T/C endpoint: mean survival time, dose: 25.0 mg/kg/injection, schedule: Q04DX003 (ip), vehicle: Klucel (hydroxypropylcellulose) (HPC)): 133 % of control
- T/C (T/C endpoint: mean survival time, dose: 50.0 mg/kg/injection, schedule: Q04DX003 (ip), vehicle: Klucel (hydroxypropylcellulose) (HPC)): 146 % of control

Compound: O=NN(CCCl)C(=O)NC1CCC(=O)NC1=O (stereo not given)
- T/C (T/C endpoint: mean survival time, dose: 5.5 mg/kg/injection, schedule: Q01DX001 (ip), vehicle: other): 136 % of control
- survivor count (T/C endpoint: mean survival time, dose: 45.0 mg/kg/injection, schedule: Q01DX001 (ip), vehicle: saline with Tween-80): 10 of 10

Compound: CCOC(=O)C(CC(C)C)NC(=O)C(Cc1ccc(N(CCCl)CCCl)cc1)NC(C)=O (stereo not given)
- survivor count (T/C endpoint: mean survival time, dose: 8.0 mg/kg/injection, schedule: Q01DX009 (ip), vehicle: DMSO): 7 of 10
- survivor count (T/C endpoint: mean survival time, dose: 16.0 mg/kg/injection, schedule: Q01DX009 (ip), vehicle: DMSO): 8 of 10

Compound: CC(=O)OC1CCC(NC(=O)N(CCF)N=O)CC1 (stereo not given)
- T/C [1]: 144 % of control
- survivor count (T/C endpoint: mean survival time, dose: 48.0 mg/kg/injection, schedule: Q01DX001 (oral), vehicle: other): 3 of 10
- survivor count (T/C endpoint: mean survival time, dose: 54.0 mg/kg/injection, schedule: Q01DX001 (ip), vehicle: other): 2 of 10
- survivor count (T/C endpoint: mean survival time, dose: 72.0 mg/kg/injection, schedule: Q01DX001 (oral), vehicle: other): 1 of 10
- survivor count (T/C endpoint: mean survival time, dose: 81.0 mg/kg/injection, schedule: Q01DX001 (ip), vehicle: other): 1 of 10
- survivor count (T/C endpoint: mean survival time, dose: 108.0 mg/kg/injection, schedule: Q01DX001 (oral), vehicle: other): 1 of 10
- survivor count (T/C endpoint: mean survival time, dose: 162.0 mg/kg/injection, schedule: Q01DX001 (oral), vehicle: other): 1 of 10

Compound: CC(=O)OC1CCC(NC(=O)N(CCCl)N=O)CC1 (stereo not given)
- T/C [1]: 141 % of control

Compound: O=NN(CCCl)C(=O)N[C@@H]1CCC[C@@H](O)C1
- T/C (T/C endpoint: mean survival time, dose: 13.0 mg/kg/injection, schedule: Q01DX001 (ip), vehicle: saline with Tween-80): 140 % of control
- T/C (T/C endpoint: mean survival time, dose: 67.0 mg/kg/injection, schedule: Q01DX001 (ip), vehicle: saline with Tween-80): 147 % of control [9 of 10 alive]
- survivor count (T/C endpoint: mean survival time, dose: 100.0 mg/kg/injection, schedule: Q01DX001 (ip), vehicle: saline with Tween-80): 9 of 10
- survivor count (T/C endpoint: mean survival time, dose: 150.0 mg/kg/injection, schedule: Q01DX001 (ip), vehicle: saline with Tween-80): 7 of 10

Compound: O=NN(CCF)C(=O)NC12CC3CC(CC(C3)C1)C2
- T/C (T/C endpoint: mean survival time, dose: 80.0 mg/kg/injection, schedule: Q01DX001 (ip), vehicle: other): 134 % of control
- T/C (T/C endpoint: mean survival time, dose: 125.0 mg/kg/injection, schedule: Q01DX001 (ip), vehicle: other): 136 % of control
- survivor count (T/C endpoint: mean survival time, dose: 187.0 mg/kg/injection, schedule: Q01DX001 (ip), vehicle: other): 10 of 10
- survivor count (T/C endpoint: mean survival time, dose: 280.0 mg/kg/injection, schedule: Q01DX001 (ip), vehicle: other): 10 of 10

Compound: C[n+]1c2ccccc2c(Nc2ccc(NS(=O)(=O)CCCCN=C(N)N)cc2)c2ccc(N)cc21
- survivor count (T/C endpoint: mean survival time, dose: 24.0 mg/kg/injection, schedule: Q01DX009 (ip), vehicle: water): 1 of 10

Compound: O=NN(CCCl)C(=O)Nc1ccc(NC(=O)N(CCCl)N=O)cc1
- T/C (T/C endpoint: mean survival time, dose: 150.0 mg/kg/injection, schedule: Q01DX009 (ip), vehicle: carboxymethylcellulose (CMC)): 128 % of control
- T/C (T/C endpoint: mean survival time, dose: 160.0 mg/kg/injection, schedule: Q01DX001 (ip), vehicle: carboxymethylcellulose (CMC)): 131 and 137 % of control
- T/C (T/C endpoint: mean survival time, dose: 240.0 mg/kg/injection, schedule: Q01DX001 (ip), vehicle: carboxymethylcellulose (CMC)): 135 and 147 % of control

Compound: CNC1=C(N2CC2)C(=O)C(NC)=C(N2CC2)C1=O
- T/C (T/C endpoint: mean survival time, dose: 0.4 mg/kg/injection, schedule: Q01DX009 (ip), vehicle: saline): 144 % of control
- survivor count (T/C endpoint: mean survival time, dose: 0.8 mg/kg/injection, schedule: Q01DX009 (ip), vehicle: saline): 4 of 6

Compound: O=C1C=C(N2CC2)C(=O)C(N2CC2)=C1N1CC1
- T/C (T/C endpoint: mean survival time, dose: 0.1 mg/kg/injection, schedule: Q01DX009 (ip), vehicle: saline): 126 % of control
- survivor count (T/C endpoint: mean survival time, dose: 0.2 mg/kg/injection, schedule: Q01DX009 (ip), vehicle: saline): 6 of 6

Compound: O=NN(CCCl)C(=O)NC1CCC(O)CC1 (stereo not given)
- survivor count (T/C endpoint: mean survival time, dose: 133.0 mg/kg/injection, schedule: Q01DX001 (ip), vehicle: saline): 9 of 10
- survivor count (T/C endpoint: mean survival time, dose: 200.0 mg/kg/injection, schedule: Q01DX001 (ip), vehicle: saline): 4 of 10

Compound: C1CN1c1nc(N2CC2)nc(N2CC2)n1
- T/C (T/C endpoint: mean survival time, dose: 0.37 mg/kg/injection, schedule: Q01DX Z (ip), vehicle: saline): 136 % of control
- T/C (T/C endpoint: mean survival time, dose: 0.75 mg/kg/injection, schedule: Q01DX Z (ip), vehicle: saline): 126 % of control
- T/C (T/C endpoint: mean survival time, dose: 1.4 mg/kg/injection, schedule: Q01DX001 (ip), vehicle: saline): 127 % of control
- survivor count (T/C endpoint: mean survival time, dose: 2.0 mg/kg/injection, schedule: Q01DX Z (ip), vehicle: saline): 6 of 6
- survivor count (T/C endpoint: mean survival time, dose: 2.5 mg/kg/injection, schedule: Q01DX Z (ip), vehicle: saline): 3 of 6
- survivor count (T/C endpoint: mean survival time, dose: 3.0 mg/kg/injection, schedule: Q01DX Z (ip), vehicle: saline): 3 of 6

Compound: O=C1C(NCC(O)CO)=C(N2CC2)C(=O)C(NCC(O)CO)=C1N1CC1 (stereo not given)
- T/C (T/C endpoint: mean survival time, dose: 3.0 mg/kg/injection, schedule: Q01DX009 (ip), vehicle: saline): 138 % of control
- T/C (T/C endpoint: mean survival time, dose: 4.0 mg/kg/injection, schedule: Q01DX009 (ip), vehicle: saline): 132 % of control
- T/C (T/C endpoint: mean survival time, dose: 6.0 mg/kg/injection, schedule: Q01DX009 (ip), vehicle: saline): 130 % of control

Compound: O=NN(CCCl)C(=O)CCCCC(=O)N(CCCl)N=O
- survivor count (T/C endpoint: mean survival time, dose: 150.0 mg/kg/injection, schedule: Q01DX001 (ip), vehicle: carboxymethylcellulose (CMC)): 9 of 10

Compound: O=NN(CCF)C(=O)NCCF
- T/C (T/C endpoint: mean survival time, dose: 1.75 mg/kg/injection, schedule: Q01DX001 (ip), vehicle: saline): 132 % of control
- survivor count (T/C endpoint: mean survival time, dose: 12.0 mg/kg/injection, schedule: Q01DX001 (ip), vehicle: saline): 1 of 10
- survivor count (T/C endpoint: mean survival time, dose: 18.0 mg/kg/injection, schedule: Q01DX001 (ip), vehicle: saline): 0 of 10
- survivor count (T/C endpoint: mean survival time, dose: 28.0 mg/kg/injection, schedule: Q01DX001 (ip), vehicle: saline): 2 of 10

Compound: O=NN1CCCNC1=O
- survivor count (T/C endpoint: mean survival time, dose: 300.0 mg/kg/injection, schedule: Q01DX001 (ip), vehicle: carboxymethylcellulose (CMC)): 0 of 10
- survivor count (T/C endpoint: mean survival time, dose: 375.0 mg/kg/injection, schedule: Q01DX001 (ip), vehicle: carboxymethylcellulose (CMC)): 1 of 10
- survivor count [2]: 0 of 10

Compound: CC1CCCC(NC(=O)N(CCCl)N=O)C1 (stereo not given)
- T/C (T/C endpoint: mean survival time, dose: 27.0 mg/kg/injection, schedule: Q01DX001 (ip), vehicle: other): 128 % of control
- T/C (T/C endpoint: mean survival time, dose: 35.0 mg/kg/injection, schedule: Q01DX001 (ip), vehicle: other): 127 % of control
- T/C (T/C endpoint: mean survival time, dose: 143.0 mg/kg/injection, schedule: Q01DX001 (ip), vehicle: other): 135 % of control

Compound: N#CCCN(N=O)C(=O)Nc1ccccc1
- survivor count [2]: 0 of 10
- survivor count (T/C endpoint: mean survival time, dose: 1200.0 mg/kg/injection, schedule: Q01DX001 (ip), vehicle: carboxymethylcellulose (CMC)): 0 of 10
- survivor count (T/C endpoint: mean survival time, dose: 2400.0 mg/kg/injection, schedule: Q01DX001 (ip), vehicle: carboxymethylcellulose (CMC)): 0 of 10

Compound: CN(N=O)C(=O)NC(N)=O
- T/C (T/C endpoint: mean survival time, dose: 112.0 mg/kg/injection, schedule: Q01DX001 (ip), vehicle: carboxymethylcellulose (CMC)): 125 % of control
- survivor count (T/C endpoint: mean survival time, dose: 168.0 mg/kg/injection, schedule: Q01DX001 (ip), vehicle: carboxymethylcellulose (CMC)): 4 of 6
- survivor count (T/C endpoint: mean survival time, dose: 252.0 mg/kg/injection, schedule: Q01DX001 (ip), vehicle: carboxymethylcellulose (CMC)): 0 of 6
- survivor count (T/C endpoint: mean survival time, dose: 378.0 mg/kg/injection, schedule: Q01DX001 (ip), vehicle: carboxymethylcellulose (CMC)): 0 of 6
- survivor count (T/C endpoint: mean survival time, dose: 567.0 mg/kg/injection, schedule: Q01DX001 (ip), vehicle: carboxymethylcellulose (CMC)): 0 of 6
